Laboratory results reported in the supplement of paper PMC10849652.
The other results are listed elsewhere or left out.

Chains of the proteins cited; added tags and fusions are not shown. Lines headed by an entry give the natural chain unless they say otherwise; changes in a name come on top.
UniProt Q8N3Z3: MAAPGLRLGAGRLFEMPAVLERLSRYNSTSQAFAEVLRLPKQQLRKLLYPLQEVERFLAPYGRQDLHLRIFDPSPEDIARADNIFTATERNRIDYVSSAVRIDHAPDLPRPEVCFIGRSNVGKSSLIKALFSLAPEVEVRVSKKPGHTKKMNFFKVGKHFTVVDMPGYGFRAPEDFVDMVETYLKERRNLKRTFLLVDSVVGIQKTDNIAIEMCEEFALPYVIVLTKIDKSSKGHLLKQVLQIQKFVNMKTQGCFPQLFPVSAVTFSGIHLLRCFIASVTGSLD
UniProt O75367, whole entry, looked up: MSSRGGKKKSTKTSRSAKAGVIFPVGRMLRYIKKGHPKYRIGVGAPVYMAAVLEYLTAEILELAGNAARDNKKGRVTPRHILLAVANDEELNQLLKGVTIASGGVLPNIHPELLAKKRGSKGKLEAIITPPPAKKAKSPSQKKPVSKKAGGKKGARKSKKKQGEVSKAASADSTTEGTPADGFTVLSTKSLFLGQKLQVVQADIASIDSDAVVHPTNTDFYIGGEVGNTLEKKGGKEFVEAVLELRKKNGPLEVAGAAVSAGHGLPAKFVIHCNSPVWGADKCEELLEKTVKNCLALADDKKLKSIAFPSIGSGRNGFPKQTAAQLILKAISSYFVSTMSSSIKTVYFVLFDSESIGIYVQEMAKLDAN
UniProt Q9NVX0: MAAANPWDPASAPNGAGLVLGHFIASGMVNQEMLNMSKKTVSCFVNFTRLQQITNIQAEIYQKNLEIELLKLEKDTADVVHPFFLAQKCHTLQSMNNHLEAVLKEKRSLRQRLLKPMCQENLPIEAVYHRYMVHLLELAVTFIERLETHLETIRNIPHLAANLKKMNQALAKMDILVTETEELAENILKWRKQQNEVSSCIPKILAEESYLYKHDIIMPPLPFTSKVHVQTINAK
UniProt A2PYH4: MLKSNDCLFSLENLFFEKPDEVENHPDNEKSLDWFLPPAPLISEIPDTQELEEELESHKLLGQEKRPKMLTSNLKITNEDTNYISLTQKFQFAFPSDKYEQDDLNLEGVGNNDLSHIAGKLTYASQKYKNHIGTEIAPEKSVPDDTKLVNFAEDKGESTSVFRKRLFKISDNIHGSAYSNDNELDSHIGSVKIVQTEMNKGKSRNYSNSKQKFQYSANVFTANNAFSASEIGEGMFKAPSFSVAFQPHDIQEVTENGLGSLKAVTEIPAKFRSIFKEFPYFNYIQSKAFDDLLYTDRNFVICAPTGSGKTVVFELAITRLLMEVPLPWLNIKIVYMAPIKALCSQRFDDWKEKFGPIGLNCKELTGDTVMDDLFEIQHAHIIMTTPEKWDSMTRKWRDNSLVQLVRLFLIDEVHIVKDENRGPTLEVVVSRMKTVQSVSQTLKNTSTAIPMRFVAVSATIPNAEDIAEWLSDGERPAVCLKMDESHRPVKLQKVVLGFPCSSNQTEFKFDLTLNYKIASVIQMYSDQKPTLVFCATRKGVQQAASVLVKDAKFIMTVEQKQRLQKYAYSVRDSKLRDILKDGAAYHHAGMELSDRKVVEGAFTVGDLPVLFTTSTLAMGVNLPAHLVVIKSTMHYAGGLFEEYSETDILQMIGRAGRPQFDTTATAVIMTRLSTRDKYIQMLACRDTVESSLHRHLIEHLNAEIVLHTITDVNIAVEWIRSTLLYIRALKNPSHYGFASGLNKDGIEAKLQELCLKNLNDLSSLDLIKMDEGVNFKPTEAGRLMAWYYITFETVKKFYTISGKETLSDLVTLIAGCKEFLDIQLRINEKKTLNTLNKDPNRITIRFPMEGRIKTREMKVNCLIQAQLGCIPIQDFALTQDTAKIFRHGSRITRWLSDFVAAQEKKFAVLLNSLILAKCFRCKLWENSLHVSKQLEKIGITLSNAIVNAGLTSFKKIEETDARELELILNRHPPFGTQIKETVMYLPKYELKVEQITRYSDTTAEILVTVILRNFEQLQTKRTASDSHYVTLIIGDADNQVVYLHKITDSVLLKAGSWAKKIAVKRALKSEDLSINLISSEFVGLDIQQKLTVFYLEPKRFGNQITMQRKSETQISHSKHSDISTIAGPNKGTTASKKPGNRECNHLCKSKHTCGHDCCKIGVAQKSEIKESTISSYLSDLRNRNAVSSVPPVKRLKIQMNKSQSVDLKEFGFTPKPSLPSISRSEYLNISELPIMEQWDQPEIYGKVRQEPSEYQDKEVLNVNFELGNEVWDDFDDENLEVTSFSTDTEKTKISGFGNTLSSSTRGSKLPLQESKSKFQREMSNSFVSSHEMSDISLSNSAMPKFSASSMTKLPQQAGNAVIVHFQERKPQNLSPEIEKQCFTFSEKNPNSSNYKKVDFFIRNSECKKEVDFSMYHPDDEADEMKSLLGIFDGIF

Columns and labels:
Assay in all cases: log2 fold change, soluble protein after heating vs DMSO (PISA); higher = thermal stabilisation; K562 cells, 10 uM, 30 min; active = over 0.2 and 3.5 SD of the protein, either way, in both replicates (recomputed)
[1] = compound: C[C@@H](Oc1cc(-c2cnn(C3CCNCC3)c2)cnc1N)c1c(Cl)ccc(F)c1Cl [crizotinib]
In short: (§1)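 K562 cells at 2×10^6 cells/mL were exposed to 10 μM compound for 30 min, then aliquots were heated for 3 min across 48°C-58°C, pooled, and extracted in PBS containing 0.5% NP-40 at 4°C. The supernatant after 21,000xg for 90 min was taken as soluble protein and measured by TMTpro 16plex LC-MS/MS with channel sums equalised. Thermal stability is reported relative to control samples, with values from duplicates. Fold changes are given on a log2 scale.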

[2] = compound: Cc1cc(Nc2cc(N3CCN(C)CC3)nc(Sc3ccc(NC(=O)C4CC4)cc3)n2)n[nH]1 [tozasertib]
In short: as §1

[3] = compound: Cc1ccc(-n2nc(C(C)(C)C)cc2NC(=O)Nc2ccc(OCCN3CCOCC3)c3ccccc23)cc1 [doramapimod]
In short: as §1

[4] = compound: Cc1cn(-c2cc(NC(=O)c3ccc(C)c(Nc4nccc(-c5cccnc5)n4)c3)cc(C(F)(F)F)c2)cn1 [nilotinib]
In short: as §1

[5] = compound: Cc1nc(Nc2n[nH]c3c2CN(C(=O)N[C@H](CN(C)C)c2ccccc2)C3(C)C)c2sccc2n1
In short: as §1

[6] = compound: Cc1ncc(-c2ccnc(Nc3ccc(S(C)(=O)=O)cc3)n2)n1C(C)C
In short: as §1

[7] = compound: Cn1cncc1[C@@](N)(c1ccc(Cl)cc1)c1ccc2c(c1)c(-c1cccc(Cl)c1)cc(=O)n2C [tipifarnib]
In short: as §1

[8] = compound: C[C@@H]1COCCN1C2=NC(=NC(=C2)C3(CC3)S(=O)(=O)C)C4=C5C=CNC5=CC=C4
In short: as §1

[9] = compound: C[C@H](C1=CC=C(C=C1)C(=O)NC2=C3C=CNC3=NC=C2)N
In short: as §1

[10] = compound: Cc1cc(Nc2cc(CN3CCOCC3)c3nc(C)c(Cc4ccc(Cl)cc4F)n3n2)n[nH]1 [gandotinib]
In short: as §1

[11] = compound: Cc1ccc(C(=O)N(CCCN)[C@@H](c2nc3cc(Cl)ccc3c(=O)n2Cc2ccccc2)C(C)C)cc1 [ispinesib]
In short: as §1

[12] = compound: Cc1ccc(NC(=O)c2ccc(CN3CC[C@H](N(C)C)C3)c(C(F)(F)F)c2)cc1Nc1nccc(-c2cncnc2)n1 [bafetinib]
In short: as §1

[13] = compound: Cc1cccc(CC(=O)N2CCc3c2ccc(-c2cn(C)c4ncnc(N)c24)c3F)n1
In short: as §1

[14] = compound: Cn1cc(-c2ccc3c(c2)CCN3C(=O)Cc2cccc(C(F)(F)F)c2)c2c(N)ncnc21
In short: as §1

[15] = compound: Cn1cc(-c2ccc3nnc(C(F)(F)c4ccc5ncccc5c4)n3n2)cn1
In short: as §1

[16] = compound: FC(F)(F)c1ccc(/C=C/c2nc(COc3ccc(CCCCn4ccnn4)cc3)co2)cc1 [mubritinib]
In short: as §1

[17] = compound: CS(=O)(=O)c1ccc(-c2cnc(N)c(C(=O)Nc3ccccc3)n2)cc1
In short: as §1

[18] = compound: Cc1cc(SCc2sc(-c3ccc(C(F)(F)F)cc3)nc2C)ccc1OCC(=O)O
In short: as §1

[19] = compound: Cc1nc(Nc2ncc(C(=O)Nc3c(C)cccc3Cl)s2)cc(N2CCN(CCO)CC2)n1 [dasatinib]
In short: as §1

[20] = compound: C[C@H](Nc1ncnc2nc[nH]c12)c1cc2cccc(Cl)c2c(=O)n1-c1ccccc1 [duvelisib]
In short: as §1

Measured: log2 fold change

GTPBP8 (UniProt Q8N3Z3)
inactive: [1] 0.019 | [2] 0.047 | [3] 0.042 | [4] 0.328 | [5] -0.298 | [6] -0.105 | [7] 0.158

H2AFY (UniProt O75367)
inactive: [1] -0.354 | [8] -0.461 | [9] 0.25 | [10] -0.236 | [2] 0.145 | [3] 0.219 | [11] -0.129 | [12] 0.13 | [13] -0.011 | [4] -0.001 | [5] -0.093 | [6] 0.128 | [14] 0.047 | [15] -0.082 | [7] 0.002 | [16] -0.113

H3-3A (UniProt P84243)
inactive: [17] 0.082 | [9] 0.038 | [18] 0.106 | [12] -0.046 | [4] -0.038 | [5] -0.123 | [19] -0.133 | [6] -0.067 | [14] 0.08 | [7] -0.261 | [16] 0.236

HAUS2 (UniProt Q9NVX0)
inactive: [9] 0.001 | [20] -0.387 | [18] 0.082 | [19] -0.022 | [14] -0.041 | [7] 0.022 | [16] 0.056

HFM1 (UniProt A2PYH4)
inactive: [20] -0.027 | [18] 0.049 | [12] -0.283 | [19] 0.029 | [7] -0.127

H3C1 (UniProt P68431)
inactive: [11] 0.57 | [15] -0.069
